Test results reported in article PMC8308721 (Pharmaceutics, 2021).

Experiment: general procedure: solution-phase peptide synthesis

Row | Substance | step yield (coupling step) | step yield (late stage modification step)
1 | Methyl (tert-butoxycarbonyl)glycylglycyl-L-phenylalanyl-L-leucinate | 81.1% | 
2 | Methyl glycylglycyl-L-phenylalanyl-L-leucinate |  | 90.6%
